The results in this text go back to article PMC8360007, “Stereoselective Access to Antimelanoma Agents by Hybridization and Dimerization of Dihydroartemisinin and Artesunic acid” (Chemmedchem, 2021).

The data set is described as follows: EPR spin trapping with MNP in the presence of Fe(II)SO4. To be noted: Fe(II)SO4 and MNP, spectra recorded till 180 minutes. On the procedure: EPR experiments in the presence of Fe(II)SO4 and the spin trap MNP [0, 15, 70, 120, 150 and 180 min with respect to the addition of the last reagent Fe(II)SO4] were also performed. Spectra were recorded till 180 minutes after the addition of Fe(II)SO4 to 20–22‐α,α samples and compared with reference obtained by adding only MNP (Figures S#6–8). In Figure 3 a comparison of the EPR spectra of the MNP adduct from 20–22‐α,α at t=150 minutes is reported in order to compare the intensity of the radical formation for the three products at the same time. In all cases the giso=2.0063±0.0001 and the coupling constant of nitrogen was A=1.62±0.01 mT. These magnetic parameters are in agreement to a C‐centered radical as previously published.[12]
Figure 3 X‐band EPR spectra of the reaction of a) 20‐α,α, b) 22‐α,α, c) 21‐α,α in the presence of MNP at t=150 minutes after the addition of the last reagent Fe(II)SO4 . Experimental condition. 9.866 GHz microwave frequency, 0.1 mT modulation amplitude and 0.2 mW microwave power.
`CC1CCC2C(C)C(OC(=O)CCC(=O)NCCc3ccc(OC(=O)CCC(=O)OC4OC5OC6(C)CCC7C(C)CCC(C4C)C57OO6)cc3)OC3OC4(C)CCC1C32OO4` (stereo not drawn) [20‐α,α]: the “radical signal of MNP adduct (C‐centered radical, EPR)” value (shortened to “radical signal of MNP adduct”) is reported as “observed after 1 hour”.

As to `COC(=O)C(Cc1ccc(OC(=O)CCC(=O)OC2OC3OC4(C)CCC5C(C)CCC(C2C)C35OO4)cc1)NC(=O)CCC(=O)OC1OC2OC3(C)CCC4C(C)CCC(C1C)C24OO3` (stereo not drawn) [21‐α,α], the “radical signal of MNP adduct” value is “almost undetectable even after 180 minutes”.

Take `CC1CCC2C(C)C(OC(=O)CCC(=O)OCc3ccc(OC(=O)CCC(=O)OC4OC5OC6(C)CCC7C(C)CCC(C4C)C57OO6)cc3)OC3OC4(C)CCC1C32OO4` (stereo not drawn) [Compound 22‐α,α]: the “radical signal of MNP adduct” value is on record as “visible at 120 minutes”.
